# Out of some 340,000 compounds screened, about 170 (0.05%) were called active. The shares of active, inactive and inconclusive entries below differ from those in the screen. Calls come from the whole dose curve; as a rule, active = well fitted inhibition curve with a large enough effect in the signal ratio, with a control signal flat (not every such curve was filed as active); inconclusive = small, poorly fitted or top-dose-only effect, or effect the other way, or a change in a side signal; inactive = flat fitted curve, though single readings scatter; the % refers to the signal ratio. Potencies of inconclusive entries are doubtful fits and often do not repeat.
# Assay: qHTS Assay to Find Inhibitors of Chronic Active B-Cell Receptor Signaling;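 for activity change, negative = inhibition: plate controls were basal doxycycline-induced cells for no effect and cells given 10 µM MG132 for full effect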
# Conditions: ABC-DLBCL IkBa-CBG/CBR reporter, luminescence ratio (green luciferase fused to IkBa over red control in TMD8 lymphoma cells), 4 h; activity change, negative = inhibition: at 46.1 µM (top of the series)
# Outline: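 TMD8 ABC-DLBCL cells carrying doxycycline-inducible green luciferase fused to IkappaBalpha plus unfused red luciferase were exposed to compounds (up to 46 uM) for 4 hrs at 37C. Activity came from the overlap-corrected green/red luminescence ratio.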
# Potency is the fitted concentration of half-maximal effect.
SMILES,"activity change, negative = inhibition",Potency
COc1ccc(C(=O)Nc2nc3c(s2)Cc2cc(OC)ccc2-3)cc1,inactive,
O=Nc1ccc(NOC(=O)c2ccccc2Br)cc1,,"inconclusive: 29.1 µM [falling, single point]"
Cc1c(C(=O)N(C)C)sc2c1c(=O)n(-c1ccccc1C(F)(F)F)c(=O)n2Cc1cccc(F)c1,inactive,
CC(C)(C)c1cc(NC(=O)COC(=O)c2ccc(O)cc2O)n(-c2ccccc2)n1,inconclusive: 4.85%,
CCOC(=O)c1ccc(N2C(=O)C(O)=C(C(C)=O)C2c2ccccn2)cc1 (centres undefined),inconclusive: 8.92%,
COc1c(Cl)ccc(Cl)c1C(=O)NC(=S)N1CCOCC1,inactive,
O=[N+]([O-])c1ccc2nonc2c1Nc1ccccc1,,"inconclusive: 39.8 µM [falling, partial curve, poor fit]"
Cc1ccc2nc(NC(=O)CN3CCOCC3)sc2c1,inconclusive: -18.8%,
O=C(c1cnn(C(=O)c2ccccc2)c1)c1ccccc1O,inconclusive: -7.64%,
Cn1c(SCC(=O)Nc2nncs2)nnc1C1CC1,inactive,
O=C(Nc1nc(-c2ccccn2)cs1)c1ccc2c(c1)OCCO2,inconclusive: -24.7%,
COc1ccc(N2C(=O)N(Cc3cccc(F)c3)c3ccccc3S2(=O)=O)cc1,,"inconclusive: 35.5 µM [falling, partial curve, poor fit]"
Cc1nc2sc(C(c3cccs3)N3CCN(c4ccccc4)CC3)c(O)n2n1 (centres undefined),inconclusive: 9.88%,
O=C(C1CCN(S(=O)(=O)c2cccs2)CC1)N1CCCC(C(F)(F)F)C1 (centres undefined),,"inconclusive: 2.82 µM [falling, partial curve]"
Cc1cc(=O)n2nc(-c3ccccc3)sc2n1,,"inconclusive: 20.6 µM [falling, single point]"
Cc1nnc(C)n1/N=C/c1cccc(Oc2ccccc2)c1,,"inconclusive: 4.11 µM [falling, full curve]"
CCCc1cc(=O)oc2c3c(cc(OCC(=O)NCC4CCC(C(=O)O)CC4)c12)OC(C)(C)CC3 (centres undefined),,"inconclusive: 35.5 µM [falling, single point]"
Oc1[nH]c2ccccc2c1N=Nc1nc2ccccc2s1,,"inconclusive: 25.9 µM [falling, partial curve, poor fit]"
CCN1C(=O)c2ccccc2Sc2ccc(NC(=O)c3ccc(C#N)cc3)cc21,inactive,
Clc1ccc(-c2nnc(-c3ccco3)nc2N2CCCCC2)cc1,inactive,
COc1ccc(CN2CCN(c3ncnc4scc(-c5ccc(F)cc5)c34)CC2)cc1,inconclusive: -12.4%,

SMILES,"activity change, negative = inhibition",Potency
CCOc1ccccc1NC(=O)CSC1=C(C#N)C(c2ccco2)C(C(=O)Nc2nc3ccccc3s2)=C(C)N1 (centres undefined),inactive,
Cc1nc2nc(SCC(=O)NCCCN3CCCC(C)C3)nn2c(C)c1Cc1ccccc1Cl (centres undefined),inactive,
COC(=O)c1cc(S(=O)(=O)NCC2CCN(Cc3ccc(Cl)cc3)CC2)c[nH]1,inconclusive: -9.43%,
COc1ccc(C)cc1S(=O)(=O)Nc1cc2c3c(c1)CCC(=O)N3CCC2,inconclusive: -6.47%,
CC(=O)Nc1ccc(S(=O)(=O)N(Cc2cc3ccc(C)cc3[nH]c2=O)CC2CCCO2)cc1 (centres undefined),inconclusive: 2.12%,
Cc1ccc(-n2nnc3ccccc3c2=O)cc1C,,"inconclusive: 29.1 µM [falling, single point]"
CC(=O)Nc1ccc2nc(NC(=O)COc3cccc(C)c3)sc2c1,inconclusive: 11.5%,
CCSc1ncnc2c1oc1ccccc12,inconclusive: 4.92%,
COc1ccccc1NC(=O)c1cc2ccccc2o1,,"inconclusive: 29.1 µM [falling, single point]"
CSc1ccc(C(=O)C2CCCN(C(=O)c3cccnc3SC)C2)cc1 (centres undefined),inconclusive: 4.89%,
COc1cccc(Nc2c3c(nc4c(-c5ccccc5)c(C)nn24)CCC3)c1,inconclusive: 0.421%,
COC(=O)c1ccccc1NC(=O)CSc1nncn1C,inactive,
Cc1ccc(CSc2nnc(NC(=O)Cn3cnc4ccccc4c3=O)s2)cc1,inconclusive: 10.7%,
CCCCNc1c(-c2ccc(SC(C)CC)c(OC)c2)nc2ccc(C)cn12 (centres undefined),inconclusive: 21%,
CCC1CCCCN1C(=O)c1cc(-c2ccc(Cl)c(Cl)c2)on1 (centres undefined),,"inconclusive: 16.4 µM [rising, partial curve]"
O=C1COc2ccc(C(=O)NC3CC3)cc2N1,inconclusive: 27.3%,
COc1ccccc1CNC(=O)CN1C(=O)NC(Cc2ccccc2)(c2ccccc2)C1=O (centres undefined),inconclusive: 0.174%,
Cc1nnc(Sc2nc3ccccc3o2)c2ccccc12,,"inconclusive: 20.6 µM [falling, partial curve]"
O=[N+]([O-])c1cn(Cc2ccc(Cl)cc2)cn1,inactive,
CN1C(=O)CSc2ccc(NC(=O)NCc3ccco3)cc21,,"inconclusive: 29.1 µM [falling, single point]"
CCc1nc(NCc2ccccn2)c2oc3ccccc3c2n1,inconclusive: -7.16%,

# Some of the entries so far, with tabs.
SMILES	activity change, negative = inhibition	Potency
O=[N+]([O-])c1ccc2nonc2c1Nc1ccccc1		inconclusive: 39.8 µM [falling, partial curve, poor fit]
Cc1ccc2nc(NC(=O)CN3CCOCC3)sc2c1	inconclusive: -18.8%	
COc1ccc(CN2CCN(c3ncnc4scc(-c5ccc(F)cc5)c34)CC2)cc1	inconclusive: -12.4%	

# Going on with the list.

SMILES,"activity change, negative = inhibition",Potency
CCNC(=O)CC1SC(=Nc2ccccc2C)N(C)C1=O (centres undefined),inconclusive: -6%,
COc1cc(-c2noc(C)c2C#CCO)cc(OC)c1OC,inconclusive: -20.1%,
N/C(=N\OC(=O)CCC1CCCCC1)c1ccc([N+](=O)[O-])cc1,inactive,
Cc1ccc(NC(=O)c2c(Cl)nc3ccccn23)cc1,inactive,
O=C(Oc1ccc2ccccc2c1Br)N1CCCCCC1,inconclusive: 15%,
COc1ccc(CC(=O)N/N=C/c2c(C)n(C)c3ccccc23)cc1OC,,"inconclusive: 15.8 µM [falling, partial curve, poor fit]"
O=C(Nc1cccc(Cl)c1N1CCCCC1)c1ccc2c(c1)OCCO2,inactive,
CC(Oc1ccc2c(-c3ccccc3)cc(=O)oc2c1)C(=O)O (centres undefined),inconclusive: 5.06%,
Cc1nc2nc(SCc3ccccc3)[nH]n2c(=O)c1C,,"inconclusive: 35.5 µM [rising, single point]"
C=CCNC(=S)N1CCN(Cc2ccc3c(c2)OCO3)CC1,inconclusive: -13%,
O=C(NCCN1C(=O)S/C(=C\c2ccc(F)cc2)C1=O)C1CCN(S(=O)(=O)c2cccs2)CC1,inactive,
Cc1ccc2occ(/C=C/C(=O)c3ccccc3O)c(=O)c2c1,inconclusive: 2.6%,
CCCN1CCC(N(CCc2ccccc2)Cc2ccccc2)CC1,inactive,
COc1cc(NC(=O)C2CCN(S(=O)(=O)c3cccs3)CC2)cc(OC)c1,inactive,
O=S1(=O)CC(O)C(NCc2cccnc2)C1 (centres undefined),inconclusive: 21.9%,
O=C(NCc1n[nH]c(=S)n1-c1ccc(F)cc1)c1ccc(S(=O)(=O)N2CCCCC2)cc1,inconclusive: -7.63%,
COC(=O)c1ccc(S(=O)(=O)N2CCN(C)CC2)n1C,inconclusive: -1.68%,
O=C(CSCc1ccccn1)Nc1ccccc1,inconclusive: 4.18%,
COC(=O)c1cc(NC(=O)Cc2ccccc2[N+](=O)[O-])ccc1Cl,,"inconclusive: 18.4 µM [falling, partial curve]"
Cc1ccc(NC(=O)Cn2c(=O)n(Cc3ccccc3)c(=O)c3c2c2cc(C)ccc2n3C)cc1,inactive,
CC(=O)c1cn(-c2ccc(Cl)cc2)c(=O)[nH]c1=O,inconclusive: 7.9%,

SMILES,"activity change, negative = inhibition",Potency
COc1ccccc1NC(=O)CCSc1nnc(-c2ccco2)o1,inactive,
C=CCNC(=S)NCCO,inconclusive: 1.29%,
O=C(CSc1cccc[n+]1[O-])c1cccs1,,"inconclusive: 35.5 µM [falling, single point]"
COc1ccc(C(=O)Nc2cc(OC)nc(OC)n2)cc1,,"inconclusive: 29.1 µM [falling, single point]"
O=C(O)c1ccccc1C(=O)NCc1c(Cl)cccc1Sc1ccc(Cl)cc1,inconclusive: 10.9%,
O=C(N/N=C/c1cn(-c2ccccc2)nc1-c1cc2ccccc2o1)c1c[nH]c2ccccc12,inactive,
CC(CCC(=O)O)C1CCC2C3C(O)CC4CC(O)CCC4(C)C3CC(O)C12C (centres undefined),,"inconclusive: 1.58 µM [falling, partial curve, poor fit]"
CCOC(=O)NC(=O)/C(C#N)=N\Nc1cccc(Cl)c1,inconclusive: 4.3%,
COc1ccc(CCN(/C=C2\Sc3ccccc3C2=O)C(C)=O)cc1OC,,"inconclusive: 2.82 µM [falling, full curve, poor fit]"
Cc1ccc(C(=O)N2CCN(c3ccccc3)CC2)cc1S(=O)(=O)N1CCCC1,inactive,
COC(=O)c1c(-c2ccccc2OC)sc2ccccc12,inconclusive: 5.8%,
O=c1[nH]c(/C=C\c2ccc(O)c(Cl)c2)nc(O)c1[N+](=O)[O-],inconclusive: -15.1%,
CCCN(CC(=O)Nc1cccc(S(N)(=O)=O)c1)CC(=O)Nc1ccc(F)c(F)c1F,inconclusive: -9.33%,
Cc1noc(C)c1S(=O)(=O)NCCc1csc2nc(-c3ccc(Cl)cc3)nn12,,"inconclusive: 8.91 µM [rising, partial curve, poor fit]"
NSc1nc(N)c2nc(-c3ccccc3)c(-c3ccccc3)nc2n1,inconclusive: 1.02%,
Cc1cc(C)cc(NC(=O)CC2Oc3ccc(C)cc3NC2=O)c1 (centres undefined),inactive,
CCN(CC)c1ccc(NC(=S)NC(=O)C2CCC2)cc1,inconclusive: -0.342%,
CCn1c(SCC(=O)N2CCCC(C)C2)nnc1-c1ccco1 (centres undefined),inconclusive: -0.492%,
COc1cccc(C(=O)NCC(=O)OCC(=O)C(C)(C)C)c1,inconclusive: 7.5%,
CCOc1ccc(NC(=O)c2cc(F)c(F)cc2Cl)cc1OCC,,"inconclusive: 11.2 µM [falling, partial curve]"
Cc1ccc(-c2nnc(Nc3ccccc3)o2)cc1,inconclusive: 232%,
